Measurements from doi:10.1101/2024.06.26.600905 (bioRxiv, 2024).
Results are given in words; binding and its absence hold for the method and conditions named. For some of these results: Binding seen in cells or lysates may run through a third protein. Some entries that bind do so weakly or less than the wild type. For some of these results: Where a sequence is shown, tags or fusion partners need not be part of it. One block for each molecule: values may come before it.

Chains of the proteins cited; added tags and fusions are not shown. Lines headed by an entry give the natural chain unless they say otherwise; changes in a name come on top.
UniProt Q96J92: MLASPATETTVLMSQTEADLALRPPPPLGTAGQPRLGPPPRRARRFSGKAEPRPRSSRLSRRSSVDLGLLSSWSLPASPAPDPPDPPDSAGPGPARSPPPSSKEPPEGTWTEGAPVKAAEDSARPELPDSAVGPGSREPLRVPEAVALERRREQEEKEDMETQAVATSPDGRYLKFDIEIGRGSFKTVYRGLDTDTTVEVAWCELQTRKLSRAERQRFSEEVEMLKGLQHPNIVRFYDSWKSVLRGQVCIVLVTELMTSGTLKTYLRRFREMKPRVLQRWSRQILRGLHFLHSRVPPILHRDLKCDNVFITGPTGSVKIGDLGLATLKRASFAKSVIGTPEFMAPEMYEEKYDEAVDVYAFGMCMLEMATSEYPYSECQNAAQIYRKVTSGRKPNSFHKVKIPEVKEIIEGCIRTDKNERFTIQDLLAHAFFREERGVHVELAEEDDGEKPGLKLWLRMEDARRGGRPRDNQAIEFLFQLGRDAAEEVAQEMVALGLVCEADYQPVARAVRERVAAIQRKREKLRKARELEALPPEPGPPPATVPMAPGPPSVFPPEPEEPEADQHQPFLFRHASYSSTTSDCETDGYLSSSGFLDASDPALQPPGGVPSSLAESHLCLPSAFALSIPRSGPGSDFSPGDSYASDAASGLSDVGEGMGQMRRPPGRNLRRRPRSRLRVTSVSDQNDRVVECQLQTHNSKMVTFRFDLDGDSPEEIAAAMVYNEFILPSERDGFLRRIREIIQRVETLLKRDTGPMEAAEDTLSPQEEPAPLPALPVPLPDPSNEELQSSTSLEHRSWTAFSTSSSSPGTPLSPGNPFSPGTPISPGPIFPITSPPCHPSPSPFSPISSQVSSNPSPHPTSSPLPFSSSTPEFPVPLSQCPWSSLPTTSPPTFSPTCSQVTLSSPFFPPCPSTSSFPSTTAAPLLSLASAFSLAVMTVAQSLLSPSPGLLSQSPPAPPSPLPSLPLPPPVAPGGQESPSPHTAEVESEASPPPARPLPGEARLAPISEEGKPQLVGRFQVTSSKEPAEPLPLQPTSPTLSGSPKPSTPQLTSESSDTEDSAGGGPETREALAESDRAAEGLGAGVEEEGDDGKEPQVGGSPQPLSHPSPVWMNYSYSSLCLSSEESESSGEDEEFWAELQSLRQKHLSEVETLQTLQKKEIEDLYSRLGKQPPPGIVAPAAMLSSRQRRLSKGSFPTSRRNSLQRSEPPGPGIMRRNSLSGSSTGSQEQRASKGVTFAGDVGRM
UniProt O95747: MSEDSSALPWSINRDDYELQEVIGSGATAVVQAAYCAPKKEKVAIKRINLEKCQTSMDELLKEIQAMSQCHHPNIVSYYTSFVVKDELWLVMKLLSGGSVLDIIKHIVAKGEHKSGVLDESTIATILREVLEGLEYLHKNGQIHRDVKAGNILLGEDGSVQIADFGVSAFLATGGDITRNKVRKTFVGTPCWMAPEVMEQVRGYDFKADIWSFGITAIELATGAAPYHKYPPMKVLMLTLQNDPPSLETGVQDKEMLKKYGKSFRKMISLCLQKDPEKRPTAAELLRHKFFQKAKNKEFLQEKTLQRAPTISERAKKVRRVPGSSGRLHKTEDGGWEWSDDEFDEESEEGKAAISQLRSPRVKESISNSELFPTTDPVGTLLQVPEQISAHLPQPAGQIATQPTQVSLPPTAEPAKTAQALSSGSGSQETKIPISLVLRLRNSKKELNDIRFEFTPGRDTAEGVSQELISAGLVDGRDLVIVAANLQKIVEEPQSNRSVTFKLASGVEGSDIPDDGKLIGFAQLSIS
UniProt Q9UHY1: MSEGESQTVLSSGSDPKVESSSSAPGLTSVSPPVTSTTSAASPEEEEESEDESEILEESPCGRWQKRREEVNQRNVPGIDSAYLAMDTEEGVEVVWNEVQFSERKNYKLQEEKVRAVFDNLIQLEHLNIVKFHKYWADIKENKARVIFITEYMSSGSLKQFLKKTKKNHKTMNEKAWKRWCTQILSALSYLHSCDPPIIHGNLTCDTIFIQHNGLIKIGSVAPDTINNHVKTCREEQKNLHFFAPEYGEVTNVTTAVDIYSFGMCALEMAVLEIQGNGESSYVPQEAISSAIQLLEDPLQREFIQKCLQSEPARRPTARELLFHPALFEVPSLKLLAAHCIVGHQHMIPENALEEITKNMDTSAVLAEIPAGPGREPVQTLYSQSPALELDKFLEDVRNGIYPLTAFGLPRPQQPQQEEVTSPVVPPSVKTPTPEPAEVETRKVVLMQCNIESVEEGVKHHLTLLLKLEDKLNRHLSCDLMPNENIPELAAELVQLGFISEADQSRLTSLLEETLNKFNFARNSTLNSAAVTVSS

Experiments:
[1] = biological target: T1, endogenous ATG9A (UniProt Q7Z3C6); test: co-IP
T1 sequence: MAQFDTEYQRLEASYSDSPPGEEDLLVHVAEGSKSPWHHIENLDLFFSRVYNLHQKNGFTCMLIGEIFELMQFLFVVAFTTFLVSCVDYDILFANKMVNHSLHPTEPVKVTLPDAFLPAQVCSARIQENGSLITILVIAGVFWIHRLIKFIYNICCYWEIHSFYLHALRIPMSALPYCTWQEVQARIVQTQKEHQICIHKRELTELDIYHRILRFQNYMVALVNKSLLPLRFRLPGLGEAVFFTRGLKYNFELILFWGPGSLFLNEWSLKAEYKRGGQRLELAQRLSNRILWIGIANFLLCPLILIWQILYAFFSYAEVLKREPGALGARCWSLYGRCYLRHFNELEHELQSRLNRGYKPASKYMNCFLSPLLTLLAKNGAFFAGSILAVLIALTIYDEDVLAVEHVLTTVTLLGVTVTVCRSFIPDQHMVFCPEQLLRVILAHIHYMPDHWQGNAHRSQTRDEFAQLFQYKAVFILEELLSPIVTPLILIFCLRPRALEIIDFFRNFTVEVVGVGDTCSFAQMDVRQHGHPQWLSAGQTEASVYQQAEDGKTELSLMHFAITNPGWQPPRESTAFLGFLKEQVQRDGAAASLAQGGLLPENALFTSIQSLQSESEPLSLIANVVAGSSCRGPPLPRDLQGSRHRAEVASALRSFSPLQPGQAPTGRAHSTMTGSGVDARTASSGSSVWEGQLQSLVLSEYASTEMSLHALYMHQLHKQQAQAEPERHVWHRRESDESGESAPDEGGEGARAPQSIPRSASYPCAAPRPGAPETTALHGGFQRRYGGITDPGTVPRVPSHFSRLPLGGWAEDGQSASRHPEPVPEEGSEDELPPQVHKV

[2] = biological target: T2, hWNK4 1012-1024 peptide with threonine at the -1 position, on the peptide array membrane (human) (UniProt Q96J92); test: peptide or protein array
T2 sequence (peptide, N-terminal acetyl; C-terminus coupled to the TOTD membrane): QLVGTFQVTSSKE

[3] = biological target: T3, hWNK4 1012-1024 wild type peptide … on the peptide array membrane (human); test: peptide or protein array
T3 sequence (peptide, N-terminal acetyl; C-terminus coupled to the TOTD membrane): QLVGRFQVTSSKE

[4] = biological target: His6-OSR1 CCT (human OSR1 433-527) (human, UniProt O95747 433-527); test: fluorescence polarisation
[5] = biological target: 3xFLAG-NRBP1 E488Q (UniProt Q9UHY1); test: co-IP
[6] = biological target: 3xFLAG-NRBP1 (UniProt Q9UHY1); test: co-IP
[7] = biological target: 3xFLAG-OSR1 (UniProt O95747); test: co-IP

binding [4]: no binding
B1: hWNK4 1012-1024 peptide, -1 arginine to lysine (peptide, UniProt Q96J92 1012-1024)
peptide: QLVGKFQVTSSKE

binding [5]: binds | binding [6]: binds
B2: myc-TSC22D1 (protein, UniProt Q15714 1-1073)
chain: MHQPPESTAAAAAAADISARKMAHPAMFPRRGSGSGSASALNAAGTGVGSNATSSEDFPPPSLLQPPPPAASSTSGPQPPPPQSLNLLSQAQLQAQPLAPGGTQMKKKSGFQITSVTPAQISASISSNNSIAEDTESYDDLDESHTEDLSSSEILDVSLSRATDLGEPERSSSEETLNNFQEAETPGAVSPNQPHLPQPHLPHLPQQNVVINGNAHPHHLHHHHQIHHGHHLQHGHHHPSHVAVASASITGGPPSSPVSRKLSTTGSSDSITPVAPTSAVSSSGSPASVMTNMRAPSTTGGIGINSVTGTSTVNNVNITAVGSFNPNVTSSMLGNVNISTSNIPSAAGVSVGPGVTSGVNVNILSGMGNGTISSSAAVSSVPNAAAGMTGGSVSSQQQQPTVNTSRFRVVKLDSSSEPFKKGRWTCTEFYEKENAVPATEGVLINKVVETVKQNPIEVTSERESTSGSSVSSSVSTLSHYTESVGSGEMGAPTVVVQQQQQQQQQQQQQPALQGVTLQQMDFGSTGPQSIPAVSIPQSISQSQISQVQLQSQELSYQQKQGLQPVPLQATMSAATGIQPSPVNVVGVTSALGQQPSISSLAQPQLPYSQAAPPVQTPLPGAPPPQQLQYGQQQPMVSTQMAPGHVKSVTQNPASEYVQQQPILQTAMSSGQPSSAGVGAGTTVIPVAQPQGIQLPVQPTAVPAQPAGASVQPVGQAPAAVSAVPTGSQIANIGQQANIPTAVQQPSTQVPPSVIQQGAPPSSQVVPPAQTGIIHQGVQTSAPSLPQQLVIASQSSLLTVPPQPQGVEPVAQGIVSQQLPAVSSLPSASSISVTSQVSSTGPSGMPSAPTNLVPPQNIAQTPATQNGNLVQSVSQPPLIATNTNLPLAQQIPLSSTQFSAQSLAQAIGSQIEDARRAAEPSLVGLPQTISGDSGGMSAVSDGSSSSLAASASLFPLKVLPLTTPLVDGEDESSSGASVVAIDNKIEQAMDLVKSHLMYAVREEVEVLKEQIKELIEKNSQLEQENNLLKTLASPEQLAQFQAQLQTGSPPATTQPQGTTQPPAQPASQGSGPTA

binding [4]: no binding
B4: hWNK4 1012-1024 peptide, -1 arginine to threonine (peptide, UniProt Q96J92 1012-1024)
peptide: QLVGTFQVTSSKE

binding [7]: binds
B5: hWNK1 1253-1265 wild type peptide NH3+-…-COO- (peptide)
peptide: SAGRRFIVSPVPE

The remaining lines, values behind:

Molecule: OSR1 (work not yet published) (from UniProt O95747 1-527)
binding [1]: binds

Molecule: His6-OSR1 CCT (human OSR1 433-527) (from UniProt O95747 433-527) (domain or fragment)
binding [2]: no binding (tested: 300 µM)

Molecule: His6-SPAK CCT (residues 449-545) (from UniProt Q9UEW8 449-545) (domain or fragment)
binding [2]: no binding (tested: 300 µM) | binding [3]: binds

B3: endogenous TSC22D1 (protein, UniProt Q15714 1-1073)
chain: MHQPPESTAAAAAAADISARKMAHPAMFPRRGSGSGSASALNAAGTGVGSNATSSEDFPPPSLLQPPPPAASSTSGPQPPPPQSLNLLSQAQLQAQPLAPGGTQMKKKSGFQITSVTPAQISASISSNNSIAEDTESYDDLDESHTEDLSSSEILDVSLSRATDLGEPERSSSEETLNNFQEAETPGAVSPNQPHLPQPHLPHLPQQNVVINGNAHPHHLHHHHQIHHGHHLQHGHHHPSHVAVASASITGGPPSSPVSRKLSTTGSSDSITPVAPTSAVSSSGSPASVMTNMRAPSTTGGIGINSVTGTSTVNNVNITAVGSFNPNVTSSMLGNVNISTSNIPSAAGVSVGPGVTSGVNVNILSGMGNGTISSSAAVSSVPNAAAGMTGGSVSSQQQQPTVNTSRFRVVKLDSSSEPFKKGRWTCTEFYEKENAVPATEGVLINKVVETVKQNPIEVTSERESTSGSSVSSSVSTLSHYTESVGSGEMGAPTVVVQQQQQQQQQQQQQPALQGVTLQQMDFGSTGPQSIPAVSIPQSISQSQISQVQLQSQELSYQQKQGLQPVPLQATMSAATGIQPSPVNVVGVTSALGQQPSISSLAQPQLPYSQAAPPVQTPLPGAPPPQQLQYGQQQPMVSTQMAPGHVKSVTQNPASEYVQQQPILQTAMSSGQPSSAGVGAGTTVIPVAQPQGIQLPVQPTAVPAQPAGASVQPVGQAPAAVSAVPTGSQIANIGQQANIPTAVQQPSTQVPPSVIQQGAPPSSQVVPPAQTGIIHQGVQTSAPSLPQQLVIASQSSLLTVPPQPQGVEPVAQGIVSQQLPAVSSLPSASSISVTSQVSSTGPSGMPSAPTNLVPPQNIAQTPATQNGNLVQSVSQPPLIATNTNLPLAQQIPLSSTQFSAQSLAQAIGSQIEDARRAAEPSLVGLPQTISGDSGGMSAVSDGSSSSLAASASLFPLKVLPLTTPLVDGEDESSSGASVVAIDNKIEQAMDLVKSHLMYAVREEVEVLKEQIKELIEKNSQLEQENNLLKTLASPEQLAQFQAQLQTGSPPATTQPQGTTQPPAQPASQGSGPTA
binding [7]: binds
